Consider one substance from publication PMC12375108.

The chains behind the UniProt entries cited, without tags or fusion partners. Residues count along the entry.
UniProt P26443, residues 54-558: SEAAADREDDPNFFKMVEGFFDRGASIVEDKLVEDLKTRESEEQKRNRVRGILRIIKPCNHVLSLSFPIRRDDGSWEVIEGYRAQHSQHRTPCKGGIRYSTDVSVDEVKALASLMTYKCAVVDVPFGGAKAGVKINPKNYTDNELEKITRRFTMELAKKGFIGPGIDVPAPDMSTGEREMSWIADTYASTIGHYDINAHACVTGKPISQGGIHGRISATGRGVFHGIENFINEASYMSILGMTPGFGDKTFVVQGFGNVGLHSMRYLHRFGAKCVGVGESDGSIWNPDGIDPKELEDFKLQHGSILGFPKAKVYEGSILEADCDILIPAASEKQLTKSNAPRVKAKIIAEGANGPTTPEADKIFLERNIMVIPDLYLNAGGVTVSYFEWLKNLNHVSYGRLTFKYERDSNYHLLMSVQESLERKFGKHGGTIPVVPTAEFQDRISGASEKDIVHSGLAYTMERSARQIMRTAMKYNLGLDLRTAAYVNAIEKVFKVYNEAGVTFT

This assay deals with T1, GST-tagged E. coli hinT H101N (E. coli) (UniProt P0ACE7).
T1 sequence: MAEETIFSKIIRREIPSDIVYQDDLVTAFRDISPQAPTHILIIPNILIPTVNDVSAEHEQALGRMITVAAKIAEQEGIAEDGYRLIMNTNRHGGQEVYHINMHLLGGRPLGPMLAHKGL
Put plainly: affinity purification with mass spectrometry; label-free quantitative LC-MS/MS of proteins enriched with GST-Ec hinT H101N from YUMM3.3 SelO against SelO D338A lysates; filtered for mitochondrial proteins; only the target purified.

No constants are given. Whether binding was seen depends on the method and setting. Binding seen in cells or lysates may run through a third protein. A yes stands for co-enrichment or nearness to the bait. Other partners may have been found. Tags and fused reporters may be left off the sequences shown.

Turning to “AMPylated Glud1 (glutamate dehydrogenase), endogenous in YUMM3.3 cells expressing SelO (from UniProt P26443 54-558) (enzyme)”, the binding entry was “binds”.
